{"sequences": {"note": "Sequences of proteins named here, by UniProt entry; tags and fusion partners are left off.", "UniProt Q13185": "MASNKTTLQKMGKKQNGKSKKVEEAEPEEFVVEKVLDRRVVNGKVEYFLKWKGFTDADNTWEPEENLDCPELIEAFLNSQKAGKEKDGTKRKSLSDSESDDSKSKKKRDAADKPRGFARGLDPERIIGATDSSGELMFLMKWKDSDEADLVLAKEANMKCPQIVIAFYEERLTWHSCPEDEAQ", "UniProt Q09028": "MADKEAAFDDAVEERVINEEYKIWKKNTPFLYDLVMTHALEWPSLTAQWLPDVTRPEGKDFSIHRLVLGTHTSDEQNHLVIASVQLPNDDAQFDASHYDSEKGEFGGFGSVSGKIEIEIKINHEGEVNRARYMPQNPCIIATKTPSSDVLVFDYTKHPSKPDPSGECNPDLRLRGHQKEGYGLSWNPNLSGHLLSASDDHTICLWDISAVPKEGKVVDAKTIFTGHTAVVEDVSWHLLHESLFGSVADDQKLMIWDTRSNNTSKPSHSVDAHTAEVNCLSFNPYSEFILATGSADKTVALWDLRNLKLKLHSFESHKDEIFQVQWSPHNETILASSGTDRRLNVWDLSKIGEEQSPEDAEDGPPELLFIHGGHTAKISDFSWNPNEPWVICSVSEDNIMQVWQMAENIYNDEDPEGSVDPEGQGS"}, "source": "paper PMC8782721", "molecules": {"B1": {"name": "TRIM24 (protein, UniProt O15164 1-1050)", "chain": "MEVAVEKAVAAAAAASAAASGGPSAAPSGENEAESRQGPDSERGGEAARLNLLDTCAVCHQNIQSRAPKLLPCLHSFCQRCLPAPQRYLMLPAPMLGSAETPPPVPAPGSPVSGSSPFATQVGVIRCPVCSQECAERHIIDNFFVKDTTEVPSSTVEKSNQVCTSCEDNAEANGFCVECVEWLCKTCIRAHQRVKFTKDHTVRQKEEVSPEAVGVTSQRPVFCPFHKKEQLKLYCETCDKLTCRDCQLLEHKEHRYQFIEEAFQNQKVIIDTLITKLMEKTKYIKFTGNQIQNRIIEVNQNQKQVEQDIKVAIFTLMVEINKKGKALLHQLESLAKDHRMKLMQQQQEVAGLSKQLEHVMHFSKWAVSSGSSTALLYSKRLITYRLRHLLRARCDASPVTNNTIQFHCDPSFWAQNIINLGSLVIEDKESQPQMPKQNPVVEQNSQPPSGLSSNQLSKFPTQISLAQLRLQHMQQQVMAQRQQVQRRPAPVGLPNPRMQGPIQQPSISHQQPPPRLINFQNHSPKPNGPVLPPHPQQLRYPPNQNIPRQAIKPNPLQMAFLAQQAIKQWQISSGQGTPSTTNSTSSTPSSPTITSAAGYDGKAFGSPMIDLSSPVGGSYNLPSLPDIDCSSTIMLDNIVRKDTNIDHGQPRPPSNRTVQSPNSSVPSPGLAGPVTMTSVHPPIRSPSASSVGSRGSSGSSSKPAGADSTHKVPVVMLEPIRIKQENSGPPENYDFPVVIVKQESDEESRPQNANYPRSILTSLLLNSSQSSTSEETVLRSDAPDSTGDQPGLHQDNSSNGKSEWLDPSQKSPLHVGETRKEDDPNEDWCAVCQNGGELLCCEKCPKVFHLSCHVPTLTNFPSGEWICTFCRDLSKPEVEYDCDAPSHNSEKKKTEGLVKLTPIDKRKCERLLLFLYCHEMSLAFQDPVPLTVPDYYKIIKNPMDLSTIKKRLQEDYSMYSKPEDFVADFRLIFQNCAEFNEPDSEVANAGIKLENYFEELLKNLYPEKRFPKPEFRNESEDNKFSDDSDDDFVQPRKKRLKSIEERQLLK"}}, "key": {"[1]": {"target": "Chromobox homolog 3 (CBX3) (human (endogenous in A549 and H1299)) (UniProt Q13185)", "assay": "co-IP; whole cell lysates of A549 and H1299 cells incubated with Protein G agarose and primary antibody (CBX3, TRIM28, TRIM24 or RBBP4) or IgG; precipitates analysed by immunoblotting"}, "[2]": {"target": "Chromobox homolog 3 (CBX3) (human (endogenous in A549 and H1299)) (UniProt Q13185)", "assay": "proximity ligation; proximity ligation assay (PLA) in A549 cells"}}, "note": "These are yes or no findings as the source states them, for the method shown. Binding seen in cells or lysates may run through a third protein. Some results given as binding are weak or reduced against the parent protein; the word gives no strength."}
{"molecule": "RBBP4 (from UniProt Q09028 1-425)", "values": [{"measurement": "binding", "setting": "[1]", "result": "binds"}, {"measurement": "binding", "setting": "[2]", "result": "binds"}]}
{"molecule": "B1", "values": [{"measurement": "binding", "setting": "[1]", "result": "binds"}, {"measurement": "binding", "setting": "[2]", "result": "binds"}]}
